Laboratory results as given in patent US20210161997A1, “TREATING DISEASES VIA TARGETED MODULATION OF GENE SIGNALING NETWORKS” (Camp4 Therapeutics Corporation, priority 2018, published 2021).

Columns and labels:
ANGPTL3 = test: RNA-seq of ANGPTL3 expression in compound-treated primary human hepatocytes; format: cell-based; conditions: additional compounds (Table 13)
Protocol: (§1) Human hepatocytes were obtained from two donors from Massachusetts General Hospital, namely MGH54 and MGH63, and one donor from Lonza, namely HUM4111B. Cryopreserved hepatocytes were cultured in plating media for 16 hours, transferred to maintenance media for 4 hours. Cultured on serum-free media for 2 hours, then a compound was added. The hepatocytes were maintained on the serum-free media for 16 hours prior to gene expression analysis. Primary human hepatocytes were stored in the vapor phase of a liquid nitrogen freezer (about −130° C.).
(§2) Human hepatocytes cultured as described above were plated in 24-well format, adding 375,000 cells per well in a volume of 500 ul plating medium. Four hours before treatment, cells were washed with PBS and the medium was changed to either: fresh maintenance medium (complete) or modified maintenance medium.
(§3) Compound stocks were prepared at 1000× final concentration and added in a 2-step dilution to the medium to reduce risk of a compound precipitating out of solution when added to the cells, and to ensure reasonable pipetting volumes. […]
(§4) For mRNA isolation and library prep, the NEBNext Poly(A) mRNA Magnetic Isolation Module and Directional Prep kit was used. RNA isolated from cells above was quantified, and prepared in […] of each sample in 50 μl of nuclease-free water. […]

APOL1 = test: RNA-seq of APOL1 expression in compound-treated primary human hepatocytes; format: cell-based; conditions: RNAseq, 10 uM dose (Table 20)
Protocol: as §1, §2, §3, §4

Compound | ANGPTL3-LINEAR FOLD CHANGE (ANGPTL3) | APOL mRNA linear fold change (APOL1)
Nc1nc2ccc(OC(F)(F)F)cc2s1 [Riluzole] | 0.4763 | –
Cc1cc(/C=C/c2ccc3cc(N(C)C)ccc3[n+]2C)c(C)n1-c1ccccc1.Cc1cc(/C=C/c2ccc3cc(N(C)C)ccc3[n+]2C)c(C)n1-c1ccccc1.O=C([O-])c1cc2ccccc2c(Cc2c(O)c(C(=O)[O-])cc3ccccc23)c1O [CPD377_Pyrvinium pamoate salt, Pyrvinium pamoate salt] | – | 0.6507
